Source: US11925646B2, “Agent for treating or preventing cancer, and combination of RF pathway inhibitor and MEK inhibitor for treating or preventing cancer” (NATIONAL UNIVERSITY CORPORATION HOKKAIDO UNIVERSITY, priority 2021, dated 2024)
At least one structure is not confirmed: it was looked up by name or label, or the drawing left a doubt.

Legend:
[1] = system: pancreatic cancer cells (AsPC-1); assay: Tumor suppression in mouse with orthotopically transplanted pancreatic cancer cells, luciferase activity; format: in vivo, BALB/cAJcl nu/nu mice; conditions: AsPC-1 orthotopic in pancreas; RoF 3 mg/kg intraperitoneally, Tr 1 mg/kg orally
[2] = system: AsPC-1; assay: Spheroid formation in three-dimensional methylcellulose culture; format: cell-based, human; conditions: 10 μM RoF, 1 nM Tr, day 21 of culture
Method: (§1) The pancreatic cancer cell lines (AsPC-1 and Capan-1) having 4-hit mutation were three-dimensionally cultured in methylcellulose-containing media.
(§2) In a 24 well plate (upper layer: 1.8% methylcellulose, lower layer: 0.48% agarose), AsPC-1 was seeded at 5×10^3 cells/well (in 100 μL of the medium). After culturing for 1 day (day 1), DMSO (control), 10 μM roseoflavin (RoF), 1 nM trametinib (Tr), or 10 μM RoF+1 nM Tr was respectively added to the 24 well plate (final concentration of DMSO: 0.1%). After adding the agent solution, the resultant was cultured in the presence of 5% CO2 at 37° C., and a culture fluid was added on day 14. The resultant was further cultured, and each group was photographed on day 21 to measure the size and the number of spheroids. It is noted that the following media were used for culturing the respective cell lines: • AsPC-1: RPMI 1640 medium (Nakalai Tesque) supplemented with 10% fetal bovine serum (Gibco) and 1% penicillin-streptomycin (Nakalai Tesque) • Capan-1: IMDM medium (Iscove's Modified Dulbecco's Medium) (Nakalai Tesque) supplemented with 20% fetal bovine serum (Gibco) and 1% penicillin-streptomycin (Nakalai Tesque)

[3] = system: Capan-1; assay: as above; format: cell-based, human; conditions: 10 μM RoF, 1 nM Tr, day 21 of culture
Method: as §1, §2

## CC(=O)Nc1cccc(-n2c(=O)n(C3CC3)c(=O)c3c(Nc4ccc(I)cc4F)n(C)c(=O)c(C)c32)c1 [trametinib, reference compound]
[1]
  tumor growth (luciferase activity, IVIS): singly suppressed tumor growth
[2]
  spheroid formation, spheroids of 0.1 to 0.2 mm and larger than 0.2 mm: spheroid formation was suppressed
[3]
  number of spheroids of 0.1 mm or smaller: increased
  spheroid formation, spheroids of 0.1 to 0.2 mm and larger than 0.2 mm: spheroid formation was suppressed
